Source: the supplement of paper PMC12823440, “Inhibitors supercharge kinase turnover through native proteolytic circuits” (Nature, 2025)
Counter-ions that a name gives are not always drawn. Some of the results follow. The calls rarely recur for the same compound in another form.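 Kinases, fused to nanoluciferase, were expressed in K562 cells; luminescence was measured every 4 h from 2 to 18 h as percent of control (DMSO = 100%, positive control = 0%). A time point is decreased if signal falls significantly (2 sigma). Hits were called by the authors by a rule that is not shown; the count of time points alone does not decide it.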

The chains behind the UniProt entries cited, without tags or fusion partners. Where a name states a change or a piece, a line headed by the entry shows the natural chain unless it says otherwise.
UniProt Q9Y616: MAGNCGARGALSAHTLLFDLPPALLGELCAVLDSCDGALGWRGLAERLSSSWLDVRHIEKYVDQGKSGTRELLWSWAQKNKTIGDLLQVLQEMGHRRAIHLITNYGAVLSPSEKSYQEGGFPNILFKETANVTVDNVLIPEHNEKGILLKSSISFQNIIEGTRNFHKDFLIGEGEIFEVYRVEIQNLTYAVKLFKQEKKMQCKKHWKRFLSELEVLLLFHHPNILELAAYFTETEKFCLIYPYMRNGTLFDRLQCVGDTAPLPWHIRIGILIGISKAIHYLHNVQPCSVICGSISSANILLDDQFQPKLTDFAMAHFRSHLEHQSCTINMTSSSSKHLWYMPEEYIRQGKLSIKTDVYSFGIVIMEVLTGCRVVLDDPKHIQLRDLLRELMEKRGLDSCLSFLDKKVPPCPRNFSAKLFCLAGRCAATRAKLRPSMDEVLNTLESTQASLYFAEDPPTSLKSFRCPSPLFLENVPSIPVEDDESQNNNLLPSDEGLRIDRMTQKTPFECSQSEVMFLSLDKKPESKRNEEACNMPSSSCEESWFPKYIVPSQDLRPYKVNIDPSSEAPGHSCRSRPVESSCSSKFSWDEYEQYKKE
UniProt P23458: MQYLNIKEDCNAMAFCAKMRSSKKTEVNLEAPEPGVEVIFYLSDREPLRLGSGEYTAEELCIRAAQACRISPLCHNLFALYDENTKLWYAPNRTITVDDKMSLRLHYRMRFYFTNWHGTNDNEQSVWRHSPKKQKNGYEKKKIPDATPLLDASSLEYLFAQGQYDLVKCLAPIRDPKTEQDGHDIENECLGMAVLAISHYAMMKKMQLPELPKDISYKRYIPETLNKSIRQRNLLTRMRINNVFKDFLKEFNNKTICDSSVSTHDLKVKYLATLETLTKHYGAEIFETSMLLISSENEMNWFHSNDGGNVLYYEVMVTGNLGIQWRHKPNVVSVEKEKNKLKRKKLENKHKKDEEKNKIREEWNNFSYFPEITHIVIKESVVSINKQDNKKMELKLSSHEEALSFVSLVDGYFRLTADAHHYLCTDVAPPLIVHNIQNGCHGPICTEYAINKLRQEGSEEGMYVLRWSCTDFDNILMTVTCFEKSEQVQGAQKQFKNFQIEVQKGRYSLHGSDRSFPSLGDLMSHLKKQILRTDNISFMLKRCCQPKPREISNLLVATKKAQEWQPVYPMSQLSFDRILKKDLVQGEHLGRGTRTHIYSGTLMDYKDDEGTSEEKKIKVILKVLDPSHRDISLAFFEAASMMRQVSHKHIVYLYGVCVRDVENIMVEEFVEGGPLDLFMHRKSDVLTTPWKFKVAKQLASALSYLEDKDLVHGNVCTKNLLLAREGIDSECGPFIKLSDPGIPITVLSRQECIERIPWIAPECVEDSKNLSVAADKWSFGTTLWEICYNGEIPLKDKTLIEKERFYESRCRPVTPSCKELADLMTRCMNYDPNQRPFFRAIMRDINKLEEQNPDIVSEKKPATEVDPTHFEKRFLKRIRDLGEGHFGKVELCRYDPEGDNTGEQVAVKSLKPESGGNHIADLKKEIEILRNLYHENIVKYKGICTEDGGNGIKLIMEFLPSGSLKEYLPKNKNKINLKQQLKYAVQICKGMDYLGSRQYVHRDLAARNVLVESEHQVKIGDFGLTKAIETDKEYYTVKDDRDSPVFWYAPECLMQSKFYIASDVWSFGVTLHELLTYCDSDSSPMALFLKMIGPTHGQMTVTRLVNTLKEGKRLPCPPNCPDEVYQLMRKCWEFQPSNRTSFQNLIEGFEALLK
UniProt P06239: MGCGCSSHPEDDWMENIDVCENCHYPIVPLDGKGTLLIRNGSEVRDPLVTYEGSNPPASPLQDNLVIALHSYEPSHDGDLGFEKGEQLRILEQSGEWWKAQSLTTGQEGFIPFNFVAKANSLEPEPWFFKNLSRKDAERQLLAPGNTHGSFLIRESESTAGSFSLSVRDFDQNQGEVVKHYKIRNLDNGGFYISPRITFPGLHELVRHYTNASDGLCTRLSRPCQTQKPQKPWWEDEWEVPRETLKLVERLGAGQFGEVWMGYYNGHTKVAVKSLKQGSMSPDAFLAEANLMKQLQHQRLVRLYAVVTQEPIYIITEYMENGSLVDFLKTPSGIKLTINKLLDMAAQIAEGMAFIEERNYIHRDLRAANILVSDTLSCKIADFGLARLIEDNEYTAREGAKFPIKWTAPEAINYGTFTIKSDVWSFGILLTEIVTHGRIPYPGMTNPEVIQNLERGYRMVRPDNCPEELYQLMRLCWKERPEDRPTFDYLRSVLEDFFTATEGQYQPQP
UniProt P53667: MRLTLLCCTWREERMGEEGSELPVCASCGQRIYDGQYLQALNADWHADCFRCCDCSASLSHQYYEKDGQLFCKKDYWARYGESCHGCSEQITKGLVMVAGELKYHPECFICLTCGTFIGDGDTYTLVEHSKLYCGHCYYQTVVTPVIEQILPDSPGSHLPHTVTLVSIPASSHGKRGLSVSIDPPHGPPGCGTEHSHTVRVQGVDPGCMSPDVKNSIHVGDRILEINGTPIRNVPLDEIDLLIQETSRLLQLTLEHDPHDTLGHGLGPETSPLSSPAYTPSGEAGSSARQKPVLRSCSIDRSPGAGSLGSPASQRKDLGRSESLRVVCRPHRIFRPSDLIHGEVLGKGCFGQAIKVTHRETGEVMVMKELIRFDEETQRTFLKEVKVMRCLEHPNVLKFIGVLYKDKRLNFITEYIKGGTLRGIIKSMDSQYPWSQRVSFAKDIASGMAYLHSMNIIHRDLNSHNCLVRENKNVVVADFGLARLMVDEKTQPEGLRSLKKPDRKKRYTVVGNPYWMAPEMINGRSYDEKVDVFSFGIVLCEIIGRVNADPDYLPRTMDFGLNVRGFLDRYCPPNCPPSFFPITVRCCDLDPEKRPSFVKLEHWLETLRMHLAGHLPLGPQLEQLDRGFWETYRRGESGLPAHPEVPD
UniProt P53671: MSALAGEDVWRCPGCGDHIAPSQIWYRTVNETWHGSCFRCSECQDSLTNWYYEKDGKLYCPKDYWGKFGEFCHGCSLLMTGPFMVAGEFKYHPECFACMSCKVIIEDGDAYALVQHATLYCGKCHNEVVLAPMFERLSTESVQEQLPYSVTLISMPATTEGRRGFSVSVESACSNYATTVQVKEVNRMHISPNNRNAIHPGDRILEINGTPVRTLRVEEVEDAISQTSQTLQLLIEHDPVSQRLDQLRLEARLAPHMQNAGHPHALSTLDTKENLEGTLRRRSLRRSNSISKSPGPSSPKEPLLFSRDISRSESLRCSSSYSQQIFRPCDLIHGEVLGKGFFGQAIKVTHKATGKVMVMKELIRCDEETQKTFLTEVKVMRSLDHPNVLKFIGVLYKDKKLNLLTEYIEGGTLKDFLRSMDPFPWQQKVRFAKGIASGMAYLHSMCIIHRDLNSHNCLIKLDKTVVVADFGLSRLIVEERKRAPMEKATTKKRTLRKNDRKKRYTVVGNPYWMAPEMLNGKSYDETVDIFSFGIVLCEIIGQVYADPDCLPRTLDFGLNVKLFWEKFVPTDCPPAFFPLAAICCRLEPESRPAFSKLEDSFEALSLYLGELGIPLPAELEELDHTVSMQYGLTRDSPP
UniProt Q8IWU2: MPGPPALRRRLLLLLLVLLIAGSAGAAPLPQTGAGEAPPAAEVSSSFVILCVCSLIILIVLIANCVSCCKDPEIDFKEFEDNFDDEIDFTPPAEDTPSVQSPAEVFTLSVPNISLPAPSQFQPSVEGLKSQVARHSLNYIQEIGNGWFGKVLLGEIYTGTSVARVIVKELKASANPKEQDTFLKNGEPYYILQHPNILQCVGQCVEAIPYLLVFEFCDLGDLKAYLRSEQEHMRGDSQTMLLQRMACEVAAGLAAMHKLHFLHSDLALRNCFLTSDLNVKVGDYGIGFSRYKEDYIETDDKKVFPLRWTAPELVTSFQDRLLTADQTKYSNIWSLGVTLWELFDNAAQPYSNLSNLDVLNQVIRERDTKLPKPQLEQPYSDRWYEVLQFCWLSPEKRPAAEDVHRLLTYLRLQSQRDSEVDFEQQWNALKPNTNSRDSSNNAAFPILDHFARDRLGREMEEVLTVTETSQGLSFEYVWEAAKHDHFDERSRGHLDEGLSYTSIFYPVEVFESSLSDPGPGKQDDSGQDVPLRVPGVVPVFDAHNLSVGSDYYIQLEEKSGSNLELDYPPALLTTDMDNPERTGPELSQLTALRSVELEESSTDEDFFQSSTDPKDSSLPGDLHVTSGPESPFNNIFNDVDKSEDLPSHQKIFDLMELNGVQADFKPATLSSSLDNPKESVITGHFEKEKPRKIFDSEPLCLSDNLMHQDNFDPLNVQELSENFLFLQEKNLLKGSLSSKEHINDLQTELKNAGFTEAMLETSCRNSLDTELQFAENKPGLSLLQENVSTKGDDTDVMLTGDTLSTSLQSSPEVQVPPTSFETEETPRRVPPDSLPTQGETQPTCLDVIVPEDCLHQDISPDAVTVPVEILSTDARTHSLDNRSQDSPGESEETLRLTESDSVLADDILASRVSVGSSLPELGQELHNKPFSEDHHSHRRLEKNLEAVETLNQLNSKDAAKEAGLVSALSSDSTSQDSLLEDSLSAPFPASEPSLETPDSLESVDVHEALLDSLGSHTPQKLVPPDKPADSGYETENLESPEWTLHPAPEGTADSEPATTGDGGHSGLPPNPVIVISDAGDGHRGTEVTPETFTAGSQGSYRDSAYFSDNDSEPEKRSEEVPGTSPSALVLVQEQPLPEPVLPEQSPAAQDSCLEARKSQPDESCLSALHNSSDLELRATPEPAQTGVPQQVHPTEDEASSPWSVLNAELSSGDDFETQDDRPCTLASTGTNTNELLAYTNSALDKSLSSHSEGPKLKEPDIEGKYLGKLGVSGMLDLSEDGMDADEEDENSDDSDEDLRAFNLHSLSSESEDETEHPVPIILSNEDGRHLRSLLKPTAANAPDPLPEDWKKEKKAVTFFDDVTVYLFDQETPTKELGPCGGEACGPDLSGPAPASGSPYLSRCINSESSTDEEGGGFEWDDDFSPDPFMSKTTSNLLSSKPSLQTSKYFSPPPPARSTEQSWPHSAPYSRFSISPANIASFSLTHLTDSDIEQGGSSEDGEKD
UniProt P07948: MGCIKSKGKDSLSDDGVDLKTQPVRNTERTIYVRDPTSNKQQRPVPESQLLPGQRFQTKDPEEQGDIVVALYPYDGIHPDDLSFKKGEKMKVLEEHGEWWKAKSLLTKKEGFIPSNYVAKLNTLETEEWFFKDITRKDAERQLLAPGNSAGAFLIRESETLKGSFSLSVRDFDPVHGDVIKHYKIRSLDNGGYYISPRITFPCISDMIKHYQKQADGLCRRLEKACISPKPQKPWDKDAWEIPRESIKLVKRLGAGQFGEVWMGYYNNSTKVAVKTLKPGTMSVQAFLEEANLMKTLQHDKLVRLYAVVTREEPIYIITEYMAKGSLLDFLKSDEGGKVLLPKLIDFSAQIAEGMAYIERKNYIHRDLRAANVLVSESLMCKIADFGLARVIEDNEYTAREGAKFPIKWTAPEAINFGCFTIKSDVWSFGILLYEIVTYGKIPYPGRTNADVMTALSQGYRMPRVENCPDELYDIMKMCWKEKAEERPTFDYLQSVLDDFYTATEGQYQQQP
UniProt Q12851: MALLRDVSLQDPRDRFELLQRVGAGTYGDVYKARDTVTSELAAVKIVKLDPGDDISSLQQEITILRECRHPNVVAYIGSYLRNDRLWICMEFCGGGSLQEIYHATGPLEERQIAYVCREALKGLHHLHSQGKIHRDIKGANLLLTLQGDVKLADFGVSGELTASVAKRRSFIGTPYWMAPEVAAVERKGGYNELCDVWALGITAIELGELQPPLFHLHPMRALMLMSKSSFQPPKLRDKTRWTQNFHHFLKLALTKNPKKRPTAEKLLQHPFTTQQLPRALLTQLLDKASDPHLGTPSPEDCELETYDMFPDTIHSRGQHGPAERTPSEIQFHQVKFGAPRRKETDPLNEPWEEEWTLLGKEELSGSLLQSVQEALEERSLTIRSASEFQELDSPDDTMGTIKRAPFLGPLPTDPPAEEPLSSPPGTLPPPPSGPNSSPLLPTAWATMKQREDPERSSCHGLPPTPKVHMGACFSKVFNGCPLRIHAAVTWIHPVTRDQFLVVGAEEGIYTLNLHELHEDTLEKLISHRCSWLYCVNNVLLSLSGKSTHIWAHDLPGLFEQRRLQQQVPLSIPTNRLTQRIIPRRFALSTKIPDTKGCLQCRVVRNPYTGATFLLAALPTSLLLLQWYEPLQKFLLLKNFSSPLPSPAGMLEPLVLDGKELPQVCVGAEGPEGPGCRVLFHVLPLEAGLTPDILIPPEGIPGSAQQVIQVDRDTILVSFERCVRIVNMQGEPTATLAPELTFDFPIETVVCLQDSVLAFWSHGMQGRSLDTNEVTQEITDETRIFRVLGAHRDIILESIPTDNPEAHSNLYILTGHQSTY

Experiments:
Assay in all cases: kinase-Nluc reporter destabilization hit call (1 = scored as downregulated) (binary); higher = compound decreases kinase abundance
Conditions in all cases: K562, 2-18 h
IRAK3 = IRAK3 (UniProt Q9Y616)
JAK1 = JAK1 (UniProt P23458)
LCK = LCK (UniProt P06239)
LIMK1 = LIMK1 (UniProt P53667)
LIMK2 = LIMK2 (UniProt P53671)
LMTK2 = LMTK2 (UniProt Q8IWU2)
LYN = LYN (UniProt P07948)
MAP2K1 = MAP2K1 (UniProt Q02750)
MAP2K2 = MAP2K2 (UniProt P36507)
MAP4K2 = MAP4K2 (UniProt Q12851)

Measured: kinase-Nluc reporter destabilization hit call

COc1ccc(-c2cc3nccn3c(Nc3ncccc3C(N)=O)n2)cc1OC [BAY 61-3606 (dihydrochloride)]
inactive: IRAK3; 2.5 µM 0 | JAK1; 2.5 µM 0 | LCK; 2.5 µM 0 | LIMK1; 2.5 µM 0 | LIMK2; 2.5 µM 0 | LMTK2; 2.5 µM 0 | LYN; 2.5 µM 0 | MAP2K1; 2.5 µM 0 | MAP2K2; 2.5 µM 0 | MAP4K2; 2.5 µM 0

O=C(c1ccc(/C=C/c2n[nH]c3ccccc23)cc1)N1CCNCC1
inactive: IRAK3; 2.5 µM 0 | JAK1; 2.5 µM 0 | LCK; 2.5 µM 0 | LIMK1; 2.5 µM 0 | LIMK2; 2.5 µM 0 | LMTK2; 2.5 µM 0 | LYN; 2.5 µM 0 | MAP2K1; 2.5 µM 0 | MAP2K2; 2.5 µM 0 | MAP4K2; 2.5 µM 0

COc1cc(Nc2c(C#N)cnc3cc(OCCCN4CCN(C)CC4)c(OC)cc23)c(Cl)cc1Cl [Bosutinib]
inactive: IRAK3; 2.5 µM 0 | JAK1; 2.5 µM 0 | LCK; 2.5 µM 0 | LIMK1; 2.5 µM 0 | LIMK2; 2.5 µM 0 | LMTK2; 2.5 µM 0 | LYN; 2.5 µM 0 | MAP2K1; 2.5 µM 0 | MAP2K2; 2.5 µM 0 | MAP4K2; 2.5 µM 0

NCCNc1ncc(C(N)=O)c(Nc2cccc(C(F)(F)F)c2)n1 [Syk Inhibitor II]
inactive: IRAK3; 10 µM 0 | JAK1; 10 µM 0 | LCK; 10 µM 0 | LIMK1; 10 µM 0 | LIMK2; 10 µM 0 | LMTK2; 10 µM 0 | LYN; 10 µM 0 | MAP2K1; 10 µM 0 | MAP2K2; 10 µM 0 | MAP4K2; 10 µM 0

COc1ccc(-c2cc(C(=O)NN=C(C)c3ccc(OC)c(OC)c3)[nH]n2)cc1
inactive: IRAK3; 10 µM 0 | JAK1; 10 µM 0 | LCK; 10 µM 0 | LIMK1; 10 µM 0 | LIMK2; 10 µM 0 | LMTK2; 10 µM 0 | LYN; 10 µM 0 | MAP2K1; 10 µM 0 | MAP2K2; 10 µM 0 | MAP4K2; 10 µM 0

Cc1cnc(Nc2ccc(OCCN3CCCC3)cc2)nc1Nc1cccc(S(=O)(=O)NC(C)(C)C)c1 [Fedratinib]
inactive: IRAK3; 2.5 µM 0 | JAK1; 2.5 µM 0 | LCK; 2.5 µM 0 | LIMK1; 2.5 µM 0 | LIMK2; 2.5 µM 0 | LMTK2; 2.5 µM 0 | LYN; 2.5 µM 0 | MAP2K1; 2.5 µM 0 | MAP2K2; 2.5 µM 0 | MAP4K2; 2.5 µM 0

COc1ccc(CNC(=O)Nc2ncc([N+](=O)[O-])s2)cc1
inactive: IRAK3; 2.5 µM 0 | JAK1; 2.5 µM 0 | LCK; 2.5 µM 0 | LIMK1; 2.5 µM 0 | LIMK2; 2.5 µM 0 | LMTK2; 2.5 µM 0 | LYN; 2.5 µM 0 | MAP2K1; 2.5 µM 0 | MAP2K2; 2.5 µM 0 | MAP4K2; 2.5 µM 0

CN1CCN(c2nc(C3=C(c4c[nH]c5ccccc45)C(=O)NC3=O)c3ccccc3n2)CC1 [Sotrastaurin]
inactive: IRAK3; 2.5 µM 0 | JAK1; 2.5 µM 0 | LCK; 2.5 µM 0 | LIMK1; 2.5 µM 0 | LIMK2; 2.5 µM 0 | LMTK2; 2.5 µM 0 | LYN; 2.5 µM 0 | MAP2K1; 2.5 µM 0 | MAP2K2; 2.5 µM 0 | MAP4K2; 2.5 µM 0

COc1cc2ncnc(Nc3cccc(Br)c3)c2cc1OC
inactive: IRAK3; 10 µM 0 | JAK1; 10 µM 0 | LCK; 10 µM 0 | LIMK1; 10 µM 0 | LIMK2; 10 µM 0 | LMTK2; 10 µM 0 | LYN; 10 µM 0 | MAP2K1; 10 µM 0 | MAP2K2; 10 µM 0 | MAP4K2; 10 µM 0

CCCCCCCCCCCCc1ccc(S(=O)(=O)Nc2nncs2)cc1
inactive: IRAK3; 10 µM 0 | JAK1; 10 µM 0 | LCK; 10 µM 0 | LIMK1; 10 µM 0 | LIMK2; 10 µM 0 | LMTK2; 10 µM 0 | LYN; 10 µM 0 | MAP2K1; 10 µM 0 | MAP2K2; 10 µM 0 | MAP4K2; 10 µM 0

C=CC(=O)N(C)CCOc1c(N)ncnc1-c1cc(F)cc(NC(=O)c2ccc(C3CC3)cc2F)c1C [Remibrutinib]
inactive: IRAK3; 10 µM 0 | JAK1; 10 µM 0 | LCK; 10 µM 0 | LIMK1; 10 µM 0 | LIMK2; 10 µM 0 | LMTK2; 10 µM 0 | LYN; 10 µM 0 | MAP2K1; 10 µM 0 | MAP2K2; 10 µM 0 | MAP4K2; 10 µM 0

Cc1ccc2c(=O)c3cccc(CC(=O)O)c3oc2c1C [Vadimezan]
inactive: IRAK3; 10 µM 0 | JAK1; 10 µM 0 | LCK; 10 µM 0 | LIMK1; 10 µM 0 | LIMK2; 10 µM 0 | LMTK2; 10 µM 0 | LYN; 10 µM 0 | MAP2K1; 10 µM 0 | MAP2K2; 10 µM 0 | MAP4K2; 10 µM 0

NC(=O)c1c(OCc2c(F)cc(Br)cc2F)nsc1NC(=O)NCCCCN1CCCC1
inactive: IRAK3; 2.5 µM 0 | JAK1; 2.5 µM 0 | LCK; 2.5 µM 0 | LIMK1; 2.5 µM 0 | LIMK2; 2.5 µM 0 | LMTK2; 2.5 µM 0 | LYN; 2.5 µM 0 | MAP2K1; 2.5 µM 0 | MAP2K2; 2.5 µM 0 | MAP4K2; 2.5 µM 0

COc1cc(N2CCN(C)CC2)ccc1Nc1nccc(-c2cn(C)c3cnccc23)n1
inactive: IRAK3; 10 µM 0 | JAK1; 10 µM 0 | LCK; 10 µM 0 | LIMK1; 10 µM 0 | LIMK2; 10 µM 0 | LMTK2; 10 µM 0 | LYN; 10 µM 0 | MAP2K1; 10 µM 0 | MAP2K2; 10 µM 0 | MAP4K2; 10 µM 0

CCOc1nc(NC(=O)Cc2cc(OC)ccc2OC)cc(N)c1C#N [JNK Inhibitor VIII]
inactive: IRAK3; 10 µM 0 | JAK1; 10 µM 0 | LCK; 10 µM 0 | LIMK1; 10 µM 0 | LIMK2; 10 µM 0 | LMTK2; 10 µM 0 | LYN; 10 µM 0 | MAP2K1; 10 µM 0 | MAP2K2; 10 µM 0 | MAP4K2; 10 µM 0

O=c1ncn2nc(Sc3ccc(F)cc3F)ccc2c1-c1c(Cl)cccc1Cl [Neflamapimod]
inactive: IRAK3; 10 µM 0 | JAK1; 10 µM 0 | LCK; 10 µM 0 | LIMK1; 10 µM 0 | LIMK2; 10 µM 0 | LMTK2; 10 µM 0 | LYN; 10 µM 0 | MAP2K1; 10 µM 0 | MAP2K2; 10 µM 0 | MAP4K2; 10 µM 0

C=CC(=O)N1CCC([C@@H]2CCNc3c(C(N)=O)c(-c4ccc(Oc5ccccc5)cc4)nn32)CC1 [Zanubrutinib]
inactive: IRAK3; 10 µM 0 | JAK1; 10 µM 0 | LCK; 10 µM 0 | LIMK1; 10 µM 0 | LIMK2; 10 µM 0 | LMTK2; 10 µM 0 | LYN; 10 µM 0 | MAP2K1; 10 µM 0 | MAP2K2; 10 µM 0 | MAP4K2; 10 µM 0

For reference, 2 of the compounds above:
O=C(c1ccc(/C=C/c2n[nH]c3ccccc23)cc1)N1CCNCC1
inactive: IRAK3; 2.5 µM 0 | JAK1; 2.5 µM 0 | LCK; 2.5 µM 0 | LIMK1; 2.5 µM 0 | LIMK2; 2.5 µM 0 | LMTK2; 2.5 µM 0 | LYN; 2.5 µM 0 | MAP2K1; 2.5 µM 0 | MAP2K2; 2.5 µM 0 | MAP4K2; 2.5 µM 0

COc1cc(Nc2c(C#N)cnc3cc(OCCCN4CCN(C)CC4)c(OC)cc23)c(Cl)cc1Cl [Bosutinib]
inactive: IRAK3; 2.5 µM 0 | JAK1; 2.5 µM 0 | LCK; 2.5 µM 0 | LIMK1; 2.5 µM 0 | LIMK2; 2.5 µM 0 | LMTK2; 2.5 µM 0 | LYN; 2.5 µM 0 | MAP2K1; 2.5 µM 0 | MAP2K2; 2.5 µM 0 | MAP4K2; 2.5 µM 0

The list goes on.

Cc1ccc(O)cc1Nc1ccnc(Nc2cccc(C(N)=O)c2)n1 [Lck inhibitor 2]
inactive: IRAK3; 10 µM 0 | JAK1; 10 µM 0 | LCK; 10 µM 0 | LIMK1; 10 µM 0 | LIMK2; 10 µM 0 | LMTK2; 10 µM 0 | LYN; 10 µM 0 | MAP2K1; 10 µM 0 | MAP2K2; 10 µM 0 | MAP4K2; 10 µM 0

Cc1cn(-c2cc(NC(=O)c3ccc(C)c(Nc4nccc(-c5cccnc5)n4)c3)cc(C(F)(F)F)c2)cn1 [Nilotinib]
inactive: IRAK3; 2.5 µM 0 | JAK1; 2.5 µM 0 | LCK; 2.5 µM 0 | LIMK1; 2.5 µM 0 | LIMK2; 2.5 µM 0 | LMTK2; 2.5 µM 0 | LYN; 2.5 µM 0 | MAP2K1; 2.5 µM 0 | MAP2K2; 2.5 µM 0 | MAP4K2; 2.5 µM 0

C=CC(=O)N1CCC[C@@H](n2nc(-c3ccc(Oc4ccccc4)cc3)c3c(N)ncnc32)C1 [Ibrutinib]
inactive: IRAK3; 2.5 µM 0 | JAK1; 2.5 µM 0 | LCK; 2.5 µM 0 | LIMK1; 2.5 µM 0 | LIMK2; 2.5 µM 0 | LMTK2; 2.5 µM 0 | LYN; 2.5 µM 0 | MAP2K1; 2.5 µM 0 | MAP2K2; 2.5 µM 0 | MAP4K2; 2.5 µM 0
